Data taken from ChEMBL document CHEMBL3988442, “University of Dundee, Small-Polar-MMV Screening Library” (2021).

Protein sequences, listed by entry. Tags and fused reporters are not part of them.
UniProt E9BF75, entry or part of it: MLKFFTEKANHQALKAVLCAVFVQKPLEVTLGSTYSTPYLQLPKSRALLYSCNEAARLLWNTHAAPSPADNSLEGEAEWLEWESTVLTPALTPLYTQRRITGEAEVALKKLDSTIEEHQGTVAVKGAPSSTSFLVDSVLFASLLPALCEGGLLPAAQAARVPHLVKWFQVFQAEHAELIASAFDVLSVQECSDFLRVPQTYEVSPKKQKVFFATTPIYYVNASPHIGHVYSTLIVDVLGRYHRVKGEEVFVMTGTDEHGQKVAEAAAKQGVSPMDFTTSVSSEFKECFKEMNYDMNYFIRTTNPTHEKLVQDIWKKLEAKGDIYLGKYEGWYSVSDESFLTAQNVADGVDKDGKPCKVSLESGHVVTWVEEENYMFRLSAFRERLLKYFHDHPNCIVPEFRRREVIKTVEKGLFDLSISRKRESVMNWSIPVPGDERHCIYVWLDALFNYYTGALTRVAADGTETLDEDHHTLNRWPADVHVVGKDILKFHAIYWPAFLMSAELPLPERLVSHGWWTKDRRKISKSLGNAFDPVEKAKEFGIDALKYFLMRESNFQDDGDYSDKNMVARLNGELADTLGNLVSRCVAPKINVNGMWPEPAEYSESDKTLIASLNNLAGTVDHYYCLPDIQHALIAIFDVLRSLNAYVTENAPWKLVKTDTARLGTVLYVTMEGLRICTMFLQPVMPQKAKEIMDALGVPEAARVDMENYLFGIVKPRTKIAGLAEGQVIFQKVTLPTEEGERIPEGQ

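Primary screen of methionyl-tRNA synthetase; the read-out is not stated. Target: Methionyl-tRNA synthetase (putative), Leishmania donovani (UniProt E9BF75). The test concentration is not given. The values are filed as inhibition. Of about 68,000 compounds tested this way, about 24 (0.035%) reached 50% or more in at least one test.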

Results are percentages, as filed.
The record does not define 0% and 100%; most values in the screen are far below 50% and negative numbers occur (in some assays of this library far below -100).
Compounds were drawn at random from those tested, without regard to their results.

For CS(=O)(=O)CCCSc1cccc(C#N)c1 the result was 10.66%.
For O=C(NCC1(O)COCCN(Cc2cccc(O)c2)C1)c1ccccn1 (stereo not given) the result was 15.22%.
For Cn1cc(CC2CCN(C(=O)NCc3cccc(C(N)=O)c3)C2)cn1 (stereo not given) the result was 10.53%.
For O=C(NCC1CCCO1)c1nc2c(s1)CCCN2c1ncccn1 (stereo not given) the result was 7.397%.
For Cc1noc(C)c1CN1CCn2cc(CN3CCOCC3)nc2C1 the result was 10.44%.
For CCOCC(=O)N(Cc1ccccn1)Cc1ccccc1C the result was 21.18%.
For CNC(=O)c1c(C)cccc1NCC(=O)Nc1cc(C)nn1C the result was 10.48%.
For Cc1ccc(CNc2ccccc2SCCC(N)=O)s1 the result was 19.16%.
For Cn1cc(C2CCCN2Cc2csc(-c3ccsc3)n2)cn1 (stereo not given) the result was 9.859%.
For CCOCCN1CCN(CC(O)c2ccc(C(F)(F)F)cc2)CC1 (stereo not given) the result was 9.254%.
For COc1ccc(OCC2CCCN(Cc3ccncc3)C2)cc1 (stereo not given) the result was 14.03%.
For Cc1cc(C(=O)N2CC[C@@H]3CN(c4ncccn4)CCO[C@@H]3C2)c(C)o1 the result was 21.89%.
For CC(C)(C)c1coc([C@@H]2COCCN2Cc2csnn2)n1 the result was 16.54%.
For Cc1n[nH]c(C2CN(C(=O)CCOCC(F)(F)F)CCO2)n1 (stereo not given) the result was 1.292%.
For O=C(Cc1c[nH]c(=O)[nH]c1=O)N1CCC2(CCC(=O)N(C3CC3)C2)CC1 the result was 4.177%.
For Cc1nc(CNCC2COCc3c(-c4ccoc4)nnn3C2)cs1 (stereo not given) the result was 13.87%.
For Cc1nn(C)c(Cl)c1CNCc1ccc(OCC(N)=O)cc1 the result was 18.88%.
For CCc1c(C)sc2ncnc(N3CCN(C4CCOCC4)CC3)c12 the result was 11.7%.
For Cc1noc(C2CCN(CC(=O)N3CCNC(=O)C3)CC2)n1 the result was 4.106%.
For CC(C)(O)c1cc(CC2(NCc3ccccc3Cl)COC2)no1 the result was 13.22%.
For O=C(NCC1(O)CCSC1)c1ccoc1 (stereo not given) the result was 11.08%.
For CCC(Nc1cccc(OC)c1)C(=O)N(CCOC)Cc1cnn(C)c1 (stereo not given) the result was 12.8%.
For COC(=O)C1=C(C)N=C2SCC(=O)N2C1c1cnn(C)c1C (stereo not given) the result was 7.833%.
For CNC(=O)CCNC(=O)Nc1cccc(Cl)c1SC(F)F the result was 11.96%.
For CN(CC(=O)NC(C)(C#N)C1CC1)Cc1nnc(C2CC2)n1C (stereo not given) the result was 12.32%.
For CC(=O)N1CCCCC1c1nnc2n1CCNC2 (stereo not given) the result was 10.29%.
For CC(C)=CCN1C[C@H]2CC[C@@H]1CN(C(=O)CSc1ccncc1)C2 the result was 9.045%.
For Cc1cc2nc(CO[C@H]3CN(C)C[C@H]3F)[nH]c2cc1C the result was 13.22%.
For CC(C)c1nnc2n1CCN(C(=O)c1ccc(S(C)(=O)=O)cc1)C2 the result was 11.34%.
For CCn1nc(C)c2nc(C(C)C)nc(N3CCN(C)CC3)c21 the result was -9.677%.
For O=C(Nc1ccccc1)[C@H]1C[C@@H]2CN(Cc3cccnc3)C[C@H]1O2 the result was 14.43%.
For Cc1noc(CCNC(=O)NCc2ccc(N3CCCCC3)cc2)n1 the result was 5.415%.
For COCCn1c2c(ccc1=O)CCN(C(=O)C1CC=CC1)CC2 the result was 5.495%.
For Cc1nccn1CC(=O)N1CC(Cc2nccc3ccn(C)c23)C1 the result was 2.589%.
For CCOC(=O)CC1CCCCN1C(=O)c1cc(C)oc1C (stereo not given) the result was 3.377%.
For O=C(c1ccoc1)N1Cc2cnn(CC3CC3)c2C(COCC2CC2)C1 (stereo not given) the result was 4.372%.
For CNS(=O)(=O)CC(=O)N(Cc1ccccc1)c1ccc(C)cc1 the result was 10.68%.
For O=C(CC1CCCC1)NCCS(=O)(=O)N1CCN(c2ccccn2)CC1 the result was 7.062%.
For Cc1oc(C(C)C)cc1C(=O)N1CCN(c2cnn(C)c(=O)c2)CC1 the result was 18.16%.
For COCCN1CCN(c2ncnc3nc(C)cc(C)c23)CC1 the result was -1.961%.
For Cc1cccc(CN2C[C@@H]3CN(Cc4ccoc4)CCO[C@@H]3C2)n1 the result was 17.29%.
For CCOCCN1CCC(c2cnccn2)CC1 the result was 3.115%.
For Cc1noc(CCCC(=O)NC(C)c2cn(-c3ccccc3)nn2)n1 (stereo not given) the result was 12.24%.
For Fc1ccccc1-c1noc2c1CN(CCN1CCOCC1)CC2 the result was 12.13%.
For CCNc1cc2c(nn1)CCN(C(=O)Cc1ccc3c(c1)CCO3)C2 the result was 21.51%.
For CC(C)N(CC(N)=O)C(=O)c1cnc(-c2ccc3c(c2)OCO3)s1 the result was 9.181%.
For CC(C)Sc1ccc(C(C)NC(=O)CNS(C)(=O)=O)cc1 (stereo not given) the result was 4.696%.
For CC(=O)N1CCC(NC2(Cc3cc(C(C)(C)O)on3)COC2)CC1 the result was 11.4%.
For O=C(c1n[nH]cc1Cl)N1CCSCC1 the result was -2.089%.
For O=C(C1CCCO1)N1CCc2ncnc(NC3CCC3)c2CC1 (stereo not given) the result was 12.5%.
For Cc1ncccc1C(=O)NC1CC(=O)N(CC(F)(F)F)C1 (stereo not given) the result was 3.495%.
For CC(C)OCCCNC(=O)CS(=O)(=O)Cc1ccc(C(C)(C)C)cc1 the result was 18.18%.
For COc1coc(CN2CCCC3(CCC(=O)N(C4CC4)C3)C2)cc1=O (stereo not given) the result was 11.15%.
For Fc1ccc(CN2CCC3(CC2)CN(c2ccccn2)CCO3)cc1 the result was 6.989%.

4 of the entries, repeated:

* CC(C)c1nnc2n1CCN(C(=O)c1ccc(S(C)(=O)=O)cc1)C2 : 11.34%
* Cc1nccn1CC(=O)N1CC(Cc2nccc3ccn(C)c23)C1 : 2.589%
* CCOCC(=O)N(Cc1ccccn1)Cc1ccccc1C : 21.18%
* COCCN1CCN(c2ncnc3nc(C)cc(C)c23)CC1 : -1.961%